Data taken from publication PMC3275592, “Structural and Functional Insights into Endoglin Ligand Recognition and Binding” (PLoS ONE, 2012).
Results are given in words; binding and its absence hold for the method and conditions named.

Key:
[1] = molecular target: Endo338, endoglin orphan domain construct (residues 22-337) (human) (UniProt P17813); test: SDS-PAGE under reducing and non-reducing conditions with anti-His6 western blot; 10% SDS gel, 0.5 µg protein; with or without 10 mM DTT (1 h, 65°C); boiled at 95°C for 5 min; disulfide-linked dimer; both purified
[2] = molecular target: Endo338, endoglin orphan domain construct (residues 22-337) (human) (UniProt P17813); test: SEC; analytic Superdex 200 10/300 GL, calibrated with standards; buffer A (100 mM Tris-HCl pH 8, 150 mM NaCl); both purified
[3] = molecular target: Endo338, endoglin orphan domain construct (residues 22-337) (human) (UniProt P17813); test: SAXS; Endo338 at 0.6 to 3.7 mg/ml, 25°C, ID14-3 BioSAXS beamline; molecular mass from I(0) through BSA calibration; both purified

B1: Endo338, endoglin orphan domain construct (residues 22-337) (domain or fragment, UniProt P17813 22-337)
chain: TSLAETVHCDLQPVGPERGEVTYTTSQVSKGCVAQAPNAILEVHVLFLEFPTGPSQLELTLQASKQNGTWPREVLLVLSVNSSVFLHLQALGIPLHLAYNSSLVTFQEPPGVNTTELPSFPKTQILEWAAERGPITSAAELNDPQSILLRLGQAQGSLSFCMLEASQDMGRTLEWRPRTPALVRGCHLEGVAGHKEAHILRVLPGHSAGPRTVTVKVELSCAPGDLDAVLILQGPPYVSWLIDANHNMQIWTTGEYSFKIFPEKNIRGFKLPDTPQGLLGEARMLNASIVASFVELPLASIVSLHASSCGGRLQTS
modifications: Man5NAG2 glycans (5 modelled at their attachment sites)
B1 was tested, and the binding [1] was “no binding”, the binding [2] was “no binding” and the binding [3] was “no binding (tested: 0.6 to 3.7 mg/ml)”.
